Results are given in words; binding and its absence hold for the method and conditions named. For part of these data: In cells and extracts the contact can be indirect. Some binding calls cover weakened binding; strength is not graded here. Tags and fused reporters may be left off the sequences shown. One block for each binder: values may come before it.
Tests used:
[1] = target: Chc-mScarlet W-box mutant (F26A, Q155A) (Saccharomyces cerevisiae) (UniProt P22137); test: FRET or BRET; acceptor photobleaching FRET in living yeast cells at endocytic patches stalled with Latrunculin A, donor mNeonGreen on Ent1/Ent2, acceptor mScarlet on Chc, 21 °C; trimmed mean FRET efficiency
[2] = target: Chc-mScarlet Arrestin and W box mutant (Arr+W) (Saccharomyces cerevisiae) (UniProt P22137); test: as above
[3] = target: Chc-mScarlet Clathrin box mutant (K63E, I87D, Q89A, K98E) (Saccharomyces cerevisiae) (UniProt P22137); test: as above
[4] = target: Chc-mScarlet Clathrin, Arrestin and W box mutant (Cla+Arr+W) (Saccharomyces cerevisiae) (UniProt P22137); test: as above
[5] = target: Chc-mScarlet Clathrin and W box mutant (Cla+W) (Saccharomyces cerevisiae) (UniProt P22137); test: as above
[6] = target: Chc-mScarlet Arrestin box mutant (Q195A, I197T, K251E) (Saccharomyces cerevisiae) (UniProt P22137); test: as above
[7] = target: T1, Saccharomyces cerevisiae clathrin heavy chain N-terminal domain (ScChc-NTD, 1-369) (Saccharomyces cerevisiae) (UniProt P22137); test: crystal structure; sitting drop; NTD incubated with excess peptide (between 23 and 40 fold) for 15 min at room temperature (21 °C) before setting up plates; both purified
T1 sequence: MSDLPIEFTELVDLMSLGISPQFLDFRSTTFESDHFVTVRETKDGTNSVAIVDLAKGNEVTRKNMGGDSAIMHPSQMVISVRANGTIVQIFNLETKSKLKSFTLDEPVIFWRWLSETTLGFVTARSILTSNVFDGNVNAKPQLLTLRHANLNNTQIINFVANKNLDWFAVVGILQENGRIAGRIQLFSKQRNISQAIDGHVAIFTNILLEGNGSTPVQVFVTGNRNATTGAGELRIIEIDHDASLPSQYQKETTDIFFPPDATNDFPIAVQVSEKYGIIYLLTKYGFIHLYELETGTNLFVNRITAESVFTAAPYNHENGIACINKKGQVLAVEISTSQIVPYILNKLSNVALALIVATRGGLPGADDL

binding [1]: binds
binding [2]: binds
binding [3]: binds
binding [4]: binds
binding [5]: binds
B1: Ent2 endogenously tagged with mNeonGreen (Ent2-mNeonGreen) (natural protein, UniProt Q05785 1-613, looked up)
chain: MSKQFVRSAKNMMKGYSSTQVLVRDATANDSRTPSIDTLDDLAQRSYDSVDFFEIMDMLDKRLNDKGKYWRHVAKSLTVLDYLVRFGSENCVLWCRENFYVIKTLREFRHENESGFDEGQIIRVKAKELVSLLNDEERLREERSMNTRNRRANRAARPRPRRQRTRSNPHDSSPSYQDDLEKALEESRITAQEDEQRRRELAQYDDEDPDFQAALQLSKEEEELKQLQELQRLQKQQQSLSQFQAPLQQQQPQQQPAYYDIFGNPISQDEYLQYQYQQDQEQAMAQQRWLDQQQEQQQLAEQQYFQQQQQAAAAASALQQQQTAANMQQQQQQPADFQQPLPTGSNNPFSMDNLERQKQEQQHAQLQRQQEEARQQQEQLKLQQLQRQQQEEAQLHQKRQEEAQLQQQQAQLLQQQAQFQQQQPLKQTRTGNQSISDKYSDLNTLLATGTGIDTFGNTGEARIPAQHTKTGTFINSQGTGYKQVTNEPKNNPFLSNQYTGLPSTNIVPTQTGYGFGNQPQSPPTNSPQQNPTGISYSQPQQQQQPQQQPQYMQNFQQQQPQYAQNFQQQPQYTQNYQQQPQYIQPHQQQQQQQQQQQQQQGYTPDQGVSLIDL
notes: epsin Ent2, Saccharomyces cerevisiae, endogenous locus tagged with mNeonGreen; also called Ent2-WT-mNeonGreen; Ent2p; source: endogenously tagged, S. cerevisiae MK100, in living cells

B2: Ent1 endogenously tagged with mNeonGreen (Ent1-mNeonGreen) (natural protein, UniProt Q12518 1-454, looked up)
chain: MSKQFVRSAKNLVKGYSSTQVLVRNATSNDNHQVSKDSLIELAEKSYDSADFFEIMDMLDKRLNDKGKYWRHIAKALTVIDYLIRFGSENCVLWCRENLYIIKTLKEFRHEDDEGIDQGQIVRVKAKELTALLSDDERLNEERNMNIKGRNRKGRRRRGTGRSDENDDDLQRAISASRLTAEEDERRRKQDEDYETALQLSKEEEELKRLQDLQRMQQQQGQQQLQQPMYYDIFGNPITPEEYAQFQLQQQQQQQQQQLQQQPMYYDVFGNPITPEELAQFQQQQQLQEQQYLASMQQQQQAMSNNPFAKSEQSSSSPKRNQLVAASSPQQLQQQKQQEPLIQNRTGNQSMTDKYSKLNELLATGTGIDTFGNVGEARIPAQHTKTGTFINSQGTGYRQVSDDPNHNPFLNSQYTGLPSTSVVPTQTGYGFGNQSQQQSQNNGSNNRGYTLIDL
notes: epsin Ent1, Saccharomyces cerevisiae, endogenous locus tagged with mNeonGreen; also called Ent1p; source: endogenously tagged, S. cerevisiae MK100, in living cells
binding [1]: binds
binding [2]: binds
binding [6]: binds

binding [7]: binds
B3: Apl2.1 CBM peptide (SQDLLDLF) (peptide)
peptide: SQDLLDLF
notes: also called LLDLF peptide; source: synthetic peptide, bought: NovoProLabs

Source: article PMC11543927, “Subtleties in Clathrin heavy chain binding boxes provide selectivity among adaptor proteins of budding yeast” (Nature Communications, 2024)
